Experimental data as given in the supplement of paper PMC6078165.
± gives the standard deviation of the averaged measurements. The reference is the same well before dosing, and untreated signal decays as well.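 Labels refer to human fibroblasts, largely primary: uterine (C12385, HUF), lung (H6013), bone (Hs27A), adrenal (HADF), skin (WS1), plus mammary HMF and breast cancer-associated Hs343T. Cancer lines are basal-like or mesenchymal-like triple-negative breast cancer. The paper counts as hits responses shifting over 3x the replicate standard deviation. The tissue of the other fibroblasts is not given here.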

System: HCC1143
Test: relative JC-1 red fluorescence (viability) vs pre-drug, coculture with fibroblast (fraction); higher = more viable cancer cells
Procedure: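 JC-1 labelled TNBC cells cocultured 1:1 (1,500 cells each) with CellTrace Violet stained primary or stromal fibroblasts in 384-well plates in FluoroBrite medium, treated with one of 42 anticancer drugs at 0.1, 1, 10 or 100 uM. JC-1 red fluorescence (mitochondrial integrity in cancer cells only) was read by plate reader every 8 h for 72 h. Values are normalised to each well's pre-drug value. The stock of one drug was tenfold lower, so its dose labels may be too high.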

C=C1C[C@@H]2[C@H](CC[C@]3(C)C(=O)CC[C@@H]23)[C@@]2(C)C=CC(=O)C=C12 [Exemestane]
relative JC-1 red fluorescence
Conditions | 8 h | 16 h | 24 h | 32 h | 40 h | 48 h | 56 h | 64 h | 72 h
0.1 µM, coculture fibroblast: C12385 | 0.8544 ± 0.0018 | 0.7881 ± 0.0068 | 0.733 ± 0.041 | 0.682 ± 0.041 | 0.62 ± 0.055 | 0.577 ± 0.059 | 0.53 ± 0.059 | 0.485 ± 0.047 | 0.465 ± 0.053
0.1 µM, coculture fibroblast: H6013 | 0.778 ± 0.022 | 0.643 ± 0.02 | 0.621 ± 0.0091 | 0.6066 ± 0.0024 | 0.54 ± 0.012 | 0.54 ± 0.013 | 0.498 ± 0.018 | 0.482 ± 0.019 | 0.4273 ± 0.0015
0.1 µM, coculture fibroblast: H6019 | 0.792 ± 0.016 | 0.684 ± 0.05 | 0.636 ± 0.065 | 0.573 ± 0.097 | 0.535 ± 0.11 | 0.505 ± 0.11 | 0.464 ± 0.11 | 0.419 ± 0.12 | 0.388 ± 0.12
0.1 µM, coculture fibroblast: H6076 | 0.794 ± 0.0028 | 0.742 ± 0.035 | 0.698 ± 0.031 | 0.66 ± 0.017 | 0.61009 ± 9.4e-05 | 0.596 ± 0.0017 | 0.5719 ± 0.0037 | 0.549 ± 0.0077 | 0.5585 ± 0.0015
0.1 µM, coculture fibroblast: H6231 | 0.799 ± 0.029 | 0.832 ± 0.028 | 0.713 ± 0.04 | 0.565 ± 0.042 | 0.593 ± 0.028 | 0.551 ± 0.032 | 0.503 ± 0.016 | 0.459 ± 0.028 | 0.427 ± 0.031
0.1 µM, coculture fibroblast: HADF | 0.729 ± 0.012 | 0.63 ± 0.017 | 0.606 ± 0.03 | 0.615 ± 0.023 | 0.51 ± 0.032 | 0.483 ± 0.041 | 0.441 ± 0.042 | 0.417 ± 0.049 | 0.416 ± 0.04
0.1 µM, coculture fibroblast: HCFa | 0.785 ± 0.013 | 0.666 ± 0.032 | 0.625 ± 0.041 | 0.597 ± 0.048 | 0.508 ± 0.055 | 0.477 ± 0.052 | 0.429 ± 0.052 | 0.392 ± 0.048 | 0.363 ± 0.057
0.1 µM, coculture fibroblast: HCPF | 0.7869 ± 0.0078 | 0.811 ± 0.031 | 0.7246 ± 0.0014 | 0.603 ± 0.033 | 0.617 ± 0.024 | 0.575 ± 0.03 | 0.523 ± 0.032 | 0.485 ± 0.036 | 0.462 ± 0.044
0.1 µM, coculture fibroblast: HHSteC | 0.853 ± 0.059 | 0.75 ± 0.077 | 0.725 ± 0.086 | 0.691 ± 0.083 | 0.606 ± 0.094 | 0.581 ± 0.091 | 0.531 ± 0.082 | 0.497 ± 0.073 | 0.46 ± 0.072
0.1 µM, coculture fibroblast: HMF | 0.78 ± 0.015 | 0.794 ± 0.031 | 0.7202 ± 0.0056 | 0.617 ± 0.049 | 0.624 ± 0.025 | 0.581 ± 0.037 | 0.531 ± 0.054 | 0.499 ± 0.061 | 0.471 ± 0.073
0.1 µM, coculture fibroblast: HPFa | 0.945 ± 0.025 | 0.851 ± 0.028 | 0.786 ± 0.055 | 0.695 ± 0.05 | 0.619 ± 0.047 | 0.575 ± 0.036 | 0.497 ± 0.031 | 0.445 ± 0.023 | 0.404 ± 0.013
0.1 µM, coculture fibroblast: HUF | 0.873 ± 0.023 | 0.759 ± 0.025 | 0.704 ± 0.038 | 0.616 ± 0.043 | 0.562 ± 0.046 | 0.53 ± 0.048 | 0.481 ± 0.051 | 0.444 ± 0.048 | 0.414 ± 0.051
0.1 µM, coculture fibroblast: Hs5 | 0.8414 ± 0.0081 | 0.806 ± 0.054 | 0.759 ± 0.024 | 0.7414 ± 0.0027 | 0.6708 ± 0.0057 | 0.637 ± 0.011 | 0.599 ± 0.0081 | 0.574 ± 0.0078 | 0.57 ± 0.013
0.1 µM, coculture fibroblast: Hs27A | 0.707 ± 0.024 | 0.618 ± 0.035 | 0.577 ± 0.041 | 0.592 ± 0.052 | 0.463 ± 0.055 | 0.444 ± 0.074 | 0.395 ± 0.071 | 0.356 ± 0.072 | 0.326 ± 0.057
0.1 µM, coculture fibroblast: Hs343T | 0.827 ± 0.029 | 0.8412 ± 0.0072 | 0.793 ± 0.048 | 0.704 ± 0.12 | 0.699 ± 0.088 | 0.665 ± 0.11 | 0.609 ± 0.15 | 0.583 ± 0.17 | 0.547 ± 0.17
0.1 µM, coculture fibroblast: WS1 | 0.857 ± 0.021 | 0.762 ± 0.016 | 0.718 ± 0.014 | 0.657 ± 0.023 | 0.591 ± 0.048 | 0.558 ± 0.053 | 0.518 ± 0.06 | 0.49 ± 0.065 | 0.47 ± 0.069
1 µM, coculture fibroblast: C12385 | 0.867 ± 0.018 | 0.775 ± 0.025 | 0.72 ± 0.037 | 0.652 ± 0.029 | 0.584 ± 0.021 | 0.536 ± 0.021 | 0.498 ± 0.027 | 0.455 ± 0.029 | 0.433 ± 0.035
1 µM, coculture fibroblast: H6013 | 0.742 ± 0.033 | 0.666 ± 0.0087 | 0.6195 ± 0.0052 | 0.598 ± 0.022 | 0.525 ± 0.017 | 0.52 ± 0.02 | 0.479 ± 0.014 | 0.457 ± 0.013 | 0.407 ± 0.032
1 µM, coculture fibroblast: H6019 | 0.8094 ± 0.0047 | 0.70586 ± 0.00041 | 0.6638 ± 0.0052 | 0.5999 ± 0.0047 | 0.5458 ± 0.0039 | 0.505 ± 0.015 | 0.457 ± 0.0089 | 0.401 ± 0.018 | 0.365 ± 0.021
1 µM, coculture fibroblast: H6076 | 0.786 ± 0.013 | 0.742 ± 0.015 | 0.7 ± 0.0062 | 0.6782 ± 0.0045 | 0.6205 ± 0.0044 | 0.6011 ± 0.0016 | 0.5701 ± 0.0041 | 0.543 ± 0.014 | 0.5497 ± 0.0048
1 µM, coculture fibroblast: H6231 | 0.8078 ± 0.0036 | 0.789 ± 0.029 | 0.692 ± 0.039 | 0.604 ± 0.011 | 0.592 ± 0.034 | 0.562 ± 0.023 | 0.521 ± 0.017 | 0.477 ± 0.02 | 0.452 ± 0.015
1 µM, coculture fibroblast: HADF | 0.766 ± 0.025 | 0.695 ± 0.032 | 0.679 ± 0.048 | 0.688 ± 0.061 | 0.613 ± 0.063 | 0.593 ± 0.065 | 0.567 ± 0.069 | 0.544 ± 0.063 | 0.504 ± 0.068
1 µM, coculture fibroblast: HCFa | 0.768 ± 0.015 | 0.675 ± 0.035 | 0.616 ± 0.047 | 0.594 ± 0.053 | 0.494 ± 0.076 | 0.461 ± 0.086 | 0.414 ± 0.078 | 0.378 ± 0.082 | 0.344 ± 0.068
1 µM, coculture fibroblast: HCPF | 0.815 ± 0.0041 | 0.746 ± 0.033 | 0.715 ± 0.023 | 0.671 ± 0.02 | 0.63428 ± 0.00056 | 0.6098 ± 0.00096 | 0.5709 ± 0.00064 | 0.537 ± 0.012 | 0.5226 ± 0.0041
1 µM, coculture fibroblast: HHSteC | 0.852 ± 0.052 | 0.765 ± 0.025 | 0.735 ± 0.054 | 0.698 ± 0.065 | 0.638 ± 0.087 | 0.612 ± 0.099 | 0.561 ± 0.1 | 0.534 ± 0.11 | 0.472 ± 0.097
1 µM, coculture fibroblast: HMF | 0.792 ± 0.0088 | 0.7728 ± 0.0021 | 0.726 ± 0.01 | 0.67 ± 0.018 | 0.626 ± 0.035 | 0.606 ± 0.026 | 0.555 ± 0.032 | 0.527 ± 0.025 | 0.507 ± 0.027
1 µM, coculture fibroblast: HPFa | 0.933 ± 0.023 | 0.835 ± 0.024 | 0.79 ± 0.025 | 0.695 ± 0.021 | 0.6139 ± 0.0026 | 0.567 ± 0.0064 | 0.492 ± 0.01 | 0.433 ± 0.023 | 0.377 ± 0.028
1 µM, coculture fibroblast: HUF | 0.907 ± 0.022 | 0.815 ± 0.029 | 0.779 ± 0.031 | 0.705 ± 0.034 | 0.66 ± 0.024 | 0.616 ± 0.025 | 0.562 ± 0.03 | 0.529 ± 0.027 | 0.497 ± 0.031
1 µM, coculture fibroblast: Hs5 | 0.8479 ± 0.0031 | 0.906 ± 0.027 | 0.843 ± 0.025 | 0.765 ± 0.013 | 0.719 ± 0.021 | 0.675 ± 0.016 | 0.63 ± 0.027 | 0.6 ± 0.029 | 0.565 ± 0.034
1 µM, coculture fibroblast: Hs27A | 0.693 ± 0.024 | 0.62 ± 0.028 | 0.582 ± 0.014 | 0.59 ± 0.019 | 0.462 ± 0.021 | 0.451 ± 0.023 | 0.399 ± 0.033 | 0.364 ± 0.034 | 0.322 ± 0.037
1 µM, coculture fibroblast: Hs343T | 0.807 ± 0.025 | 0.736 ± 0.082 | 0.689 ± 0.069 | 0.653 ± 0.032 | 0.588 ± 0.054 | 0.56 ± 0.05 | 0.51 ± 0.038 | 0.493 ± 0.029 | 0.477 ± 0.027
1 µM, coculture fibroblast: WS1 | 0.825 ± 0.03 | 0.701 ± 0.041 | 0.658 ± 0.05 | 0.584 ± 0.065 | 0.516 ± 0.059 | 0.466 ± 0.055 | 0.414 ± 0.048 | 0.367 ± 0.047 | 0.342 ± 0.034
